In the supplement of paper PMC7666118:
This is one part of the list.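 Rule for the calls: active = dose-dependent thermal stabilisation significant by F-test of dose-response against flat model at 10% FDR; inactive = not significant.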

Sequences of proteins named here, by UniProt entry; tags and fusion partners are left off. A change or cut given only in a name is not applied to a line headed by its entry.
UniProt P54259: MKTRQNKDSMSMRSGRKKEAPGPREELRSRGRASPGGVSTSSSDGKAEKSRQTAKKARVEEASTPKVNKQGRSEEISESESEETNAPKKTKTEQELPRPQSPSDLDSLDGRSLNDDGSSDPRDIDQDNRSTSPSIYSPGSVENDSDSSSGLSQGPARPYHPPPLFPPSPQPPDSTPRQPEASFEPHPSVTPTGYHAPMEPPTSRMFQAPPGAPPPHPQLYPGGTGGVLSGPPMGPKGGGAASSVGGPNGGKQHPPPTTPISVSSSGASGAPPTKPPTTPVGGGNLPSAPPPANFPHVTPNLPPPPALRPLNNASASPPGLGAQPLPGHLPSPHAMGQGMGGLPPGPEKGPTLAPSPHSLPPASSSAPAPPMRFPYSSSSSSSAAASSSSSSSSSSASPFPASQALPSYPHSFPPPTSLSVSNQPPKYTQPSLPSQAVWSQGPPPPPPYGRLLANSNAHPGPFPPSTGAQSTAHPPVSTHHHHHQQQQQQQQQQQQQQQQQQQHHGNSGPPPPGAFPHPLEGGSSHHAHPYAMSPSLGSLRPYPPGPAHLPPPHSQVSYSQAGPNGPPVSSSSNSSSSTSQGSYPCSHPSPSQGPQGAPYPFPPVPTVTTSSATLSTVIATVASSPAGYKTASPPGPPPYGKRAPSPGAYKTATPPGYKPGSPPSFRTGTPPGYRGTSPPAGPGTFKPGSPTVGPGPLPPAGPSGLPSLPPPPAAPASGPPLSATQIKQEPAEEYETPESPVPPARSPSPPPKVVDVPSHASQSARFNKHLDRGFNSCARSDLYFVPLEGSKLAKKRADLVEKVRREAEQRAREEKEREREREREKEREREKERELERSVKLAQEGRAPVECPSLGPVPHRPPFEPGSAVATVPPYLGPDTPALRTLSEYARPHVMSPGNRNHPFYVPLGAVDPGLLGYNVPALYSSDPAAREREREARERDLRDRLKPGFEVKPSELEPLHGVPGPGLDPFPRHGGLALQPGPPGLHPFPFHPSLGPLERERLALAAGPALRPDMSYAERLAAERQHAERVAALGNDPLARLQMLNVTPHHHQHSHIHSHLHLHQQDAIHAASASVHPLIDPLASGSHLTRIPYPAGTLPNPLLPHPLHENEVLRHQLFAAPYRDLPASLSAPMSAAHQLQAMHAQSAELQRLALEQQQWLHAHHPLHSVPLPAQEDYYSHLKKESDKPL
UniProt Q14692: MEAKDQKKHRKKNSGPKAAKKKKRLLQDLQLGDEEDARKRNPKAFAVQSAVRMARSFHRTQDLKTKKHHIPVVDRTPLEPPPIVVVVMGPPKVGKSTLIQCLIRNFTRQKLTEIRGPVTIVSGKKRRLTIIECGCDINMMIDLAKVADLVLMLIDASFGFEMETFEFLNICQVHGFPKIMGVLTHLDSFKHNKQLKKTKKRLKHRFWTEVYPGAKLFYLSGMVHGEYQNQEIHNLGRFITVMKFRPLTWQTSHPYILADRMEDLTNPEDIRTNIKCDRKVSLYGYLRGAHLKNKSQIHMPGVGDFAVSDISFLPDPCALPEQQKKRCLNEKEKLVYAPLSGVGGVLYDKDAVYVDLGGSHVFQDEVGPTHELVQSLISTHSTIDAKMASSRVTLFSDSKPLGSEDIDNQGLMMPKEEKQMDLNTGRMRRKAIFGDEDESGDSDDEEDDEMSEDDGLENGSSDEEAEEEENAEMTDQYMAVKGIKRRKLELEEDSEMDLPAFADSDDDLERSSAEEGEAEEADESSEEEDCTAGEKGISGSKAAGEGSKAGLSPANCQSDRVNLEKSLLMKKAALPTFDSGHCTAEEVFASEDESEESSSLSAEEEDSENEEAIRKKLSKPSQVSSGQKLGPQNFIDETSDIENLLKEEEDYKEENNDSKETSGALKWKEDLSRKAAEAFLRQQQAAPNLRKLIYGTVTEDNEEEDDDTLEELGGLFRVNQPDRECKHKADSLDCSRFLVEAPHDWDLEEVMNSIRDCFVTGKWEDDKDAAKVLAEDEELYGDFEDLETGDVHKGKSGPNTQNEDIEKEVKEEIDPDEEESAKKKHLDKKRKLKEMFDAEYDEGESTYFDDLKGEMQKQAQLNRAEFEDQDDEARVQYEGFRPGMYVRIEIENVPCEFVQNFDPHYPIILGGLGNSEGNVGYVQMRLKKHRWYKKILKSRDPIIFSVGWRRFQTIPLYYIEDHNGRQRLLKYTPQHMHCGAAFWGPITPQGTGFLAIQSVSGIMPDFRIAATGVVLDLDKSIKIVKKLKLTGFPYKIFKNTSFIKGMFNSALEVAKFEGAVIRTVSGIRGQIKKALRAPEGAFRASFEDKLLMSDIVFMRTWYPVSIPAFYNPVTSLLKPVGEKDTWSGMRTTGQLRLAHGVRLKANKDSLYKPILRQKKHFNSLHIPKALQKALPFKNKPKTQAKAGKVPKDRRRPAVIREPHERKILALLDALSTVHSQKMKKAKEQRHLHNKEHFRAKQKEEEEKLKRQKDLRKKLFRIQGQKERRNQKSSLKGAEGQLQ
UniProt Q8NDD1: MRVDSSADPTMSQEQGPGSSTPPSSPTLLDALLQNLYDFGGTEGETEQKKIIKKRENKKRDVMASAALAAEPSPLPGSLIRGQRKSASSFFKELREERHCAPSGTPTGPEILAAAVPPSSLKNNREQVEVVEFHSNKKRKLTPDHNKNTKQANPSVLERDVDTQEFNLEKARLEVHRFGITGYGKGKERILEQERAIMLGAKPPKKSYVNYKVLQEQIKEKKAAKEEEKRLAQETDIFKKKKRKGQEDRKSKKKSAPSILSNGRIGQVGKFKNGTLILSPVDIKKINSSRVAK
UniProt Q8NFC6: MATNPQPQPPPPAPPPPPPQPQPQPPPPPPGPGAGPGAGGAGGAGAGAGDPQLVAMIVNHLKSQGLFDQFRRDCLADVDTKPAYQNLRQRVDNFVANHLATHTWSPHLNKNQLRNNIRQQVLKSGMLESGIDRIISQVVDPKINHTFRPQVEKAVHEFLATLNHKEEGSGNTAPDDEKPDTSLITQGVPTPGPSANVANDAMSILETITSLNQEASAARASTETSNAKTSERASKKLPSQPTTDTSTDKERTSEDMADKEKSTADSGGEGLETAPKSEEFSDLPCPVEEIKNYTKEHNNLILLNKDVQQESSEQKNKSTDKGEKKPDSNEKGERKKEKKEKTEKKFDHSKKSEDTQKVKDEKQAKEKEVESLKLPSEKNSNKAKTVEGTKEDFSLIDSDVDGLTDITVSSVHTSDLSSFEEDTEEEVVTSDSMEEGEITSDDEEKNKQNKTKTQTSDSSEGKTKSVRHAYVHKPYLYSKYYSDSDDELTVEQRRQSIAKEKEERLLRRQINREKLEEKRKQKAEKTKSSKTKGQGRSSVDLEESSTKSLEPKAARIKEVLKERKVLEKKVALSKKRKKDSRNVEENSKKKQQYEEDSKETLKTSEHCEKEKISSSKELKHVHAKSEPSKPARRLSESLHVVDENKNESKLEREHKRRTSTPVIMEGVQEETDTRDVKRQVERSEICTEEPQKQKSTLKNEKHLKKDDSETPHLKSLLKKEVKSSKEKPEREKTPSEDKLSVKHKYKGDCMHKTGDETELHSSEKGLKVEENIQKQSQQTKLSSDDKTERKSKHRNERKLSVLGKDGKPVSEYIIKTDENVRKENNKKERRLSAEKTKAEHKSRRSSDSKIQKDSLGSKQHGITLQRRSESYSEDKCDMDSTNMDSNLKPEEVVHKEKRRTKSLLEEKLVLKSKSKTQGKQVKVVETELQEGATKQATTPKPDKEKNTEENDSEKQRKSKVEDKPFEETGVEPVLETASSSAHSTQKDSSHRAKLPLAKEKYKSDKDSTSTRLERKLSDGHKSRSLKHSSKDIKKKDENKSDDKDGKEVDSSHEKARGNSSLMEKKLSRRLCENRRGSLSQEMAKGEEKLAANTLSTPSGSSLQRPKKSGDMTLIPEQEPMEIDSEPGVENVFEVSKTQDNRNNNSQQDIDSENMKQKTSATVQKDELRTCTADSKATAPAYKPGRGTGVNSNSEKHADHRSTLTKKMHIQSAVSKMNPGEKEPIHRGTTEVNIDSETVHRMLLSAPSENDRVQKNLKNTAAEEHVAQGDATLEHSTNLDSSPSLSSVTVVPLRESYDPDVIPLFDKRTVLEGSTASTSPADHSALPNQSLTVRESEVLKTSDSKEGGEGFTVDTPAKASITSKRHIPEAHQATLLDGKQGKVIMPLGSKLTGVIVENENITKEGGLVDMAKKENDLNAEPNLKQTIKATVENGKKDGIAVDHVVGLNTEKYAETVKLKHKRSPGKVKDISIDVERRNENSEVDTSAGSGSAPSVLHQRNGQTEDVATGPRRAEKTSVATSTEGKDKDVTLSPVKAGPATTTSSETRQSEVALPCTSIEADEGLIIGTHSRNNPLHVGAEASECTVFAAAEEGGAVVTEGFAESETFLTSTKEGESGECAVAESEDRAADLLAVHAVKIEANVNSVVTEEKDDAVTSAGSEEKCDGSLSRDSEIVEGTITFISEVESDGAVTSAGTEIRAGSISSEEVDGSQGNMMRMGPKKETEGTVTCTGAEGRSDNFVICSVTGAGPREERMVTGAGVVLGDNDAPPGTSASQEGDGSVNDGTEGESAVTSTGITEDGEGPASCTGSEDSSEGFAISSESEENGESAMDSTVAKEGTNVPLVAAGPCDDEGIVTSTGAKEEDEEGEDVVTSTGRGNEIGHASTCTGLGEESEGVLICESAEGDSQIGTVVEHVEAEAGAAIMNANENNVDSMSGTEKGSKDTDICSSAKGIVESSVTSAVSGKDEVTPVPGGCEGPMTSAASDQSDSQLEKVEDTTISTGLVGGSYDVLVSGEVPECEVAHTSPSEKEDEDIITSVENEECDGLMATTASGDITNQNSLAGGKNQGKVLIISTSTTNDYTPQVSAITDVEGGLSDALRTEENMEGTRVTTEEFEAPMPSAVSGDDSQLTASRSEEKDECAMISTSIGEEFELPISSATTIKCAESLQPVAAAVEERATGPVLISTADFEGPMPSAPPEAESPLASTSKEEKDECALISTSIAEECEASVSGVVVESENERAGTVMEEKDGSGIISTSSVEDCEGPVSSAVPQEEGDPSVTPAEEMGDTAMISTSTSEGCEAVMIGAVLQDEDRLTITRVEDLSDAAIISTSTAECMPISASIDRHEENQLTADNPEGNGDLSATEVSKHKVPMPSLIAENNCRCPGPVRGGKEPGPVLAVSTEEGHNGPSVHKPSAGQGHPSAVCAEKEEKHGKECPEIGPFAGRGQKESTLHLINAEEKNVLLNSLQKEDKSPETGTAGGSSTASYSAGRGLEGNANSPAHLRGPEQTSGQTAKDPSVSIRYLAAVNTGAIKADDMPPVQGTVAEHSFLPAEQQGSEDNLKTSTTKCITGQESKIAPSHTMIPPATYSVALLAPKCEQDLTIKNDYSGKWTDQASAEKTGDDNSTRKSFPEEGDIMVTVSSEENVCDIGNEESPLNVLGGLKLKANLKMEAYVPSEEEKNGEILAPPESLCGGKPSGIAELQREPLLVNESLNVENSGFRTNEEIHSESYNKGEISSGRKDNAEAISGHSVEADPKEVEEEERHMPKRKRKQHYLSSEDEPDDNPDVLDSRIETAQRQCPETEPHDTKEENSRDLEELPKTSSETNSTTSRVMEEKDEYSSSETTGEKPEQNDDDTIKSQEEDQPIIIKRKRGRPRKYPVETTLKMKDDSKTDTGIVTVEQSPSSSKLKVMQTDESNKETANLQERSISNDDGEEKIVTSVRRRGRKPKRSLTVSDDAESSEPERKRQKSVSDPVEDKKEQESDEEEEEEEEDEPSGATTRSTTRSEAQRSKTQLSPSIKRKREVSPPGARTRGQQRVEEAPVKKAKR
UniProt Q96BM9: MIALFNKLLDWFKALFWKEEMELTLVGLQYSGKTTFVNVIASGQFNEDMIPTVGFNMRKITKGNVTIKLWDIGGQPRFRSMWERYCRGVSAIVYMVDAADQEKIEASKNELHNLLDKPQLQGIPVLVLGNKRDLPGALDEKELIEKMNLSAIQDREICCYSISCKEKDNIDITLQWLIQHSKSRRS
UniProt Q9H3H3: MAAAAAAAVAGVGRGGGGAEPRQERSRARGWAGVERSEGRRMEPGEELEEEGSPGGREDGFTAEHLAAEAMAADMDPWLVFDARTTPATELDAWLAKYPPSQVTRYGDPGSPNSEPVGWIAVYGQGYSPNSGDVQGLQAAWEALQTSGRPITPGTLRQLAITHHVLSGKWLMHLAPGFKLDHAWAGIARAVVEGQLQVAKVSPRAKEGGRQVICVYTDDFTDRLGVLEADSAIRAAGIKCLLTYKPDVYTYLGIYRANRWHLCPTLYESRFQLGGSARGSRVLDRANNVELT
UniProt Q9H7E9: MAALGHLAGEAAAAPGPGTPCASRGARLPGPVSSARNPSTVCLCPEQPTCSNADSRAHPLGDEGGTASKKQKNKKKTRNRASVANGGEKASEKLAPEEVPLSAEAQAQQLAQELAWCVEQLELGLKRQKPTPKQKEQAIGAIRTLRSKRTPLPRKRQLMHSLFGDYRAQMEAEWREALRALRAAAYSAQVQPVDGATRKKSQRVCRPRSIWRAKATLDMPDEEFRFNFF

Compound: Nc1nc2c(ncn2[C@@H]2O[C@H](COP(=O)(O)OP(=O)(O)OP(=O)(O)O)[C@@H](O)[C@H]2O)c(=O)[nH]1
Assay: dose-dependent thermal stabilisation call (2D-TPP, DLPTP, 10% FDR) (binary (1 = stabilised)); higher = stabilised by the compound
Conditions: system: Jurkat gel-filtered lysate; concentration range 1-500 µM

| Target | dose-dependent thermal stabilisation call |
| --- | --- |
| ATN1 (UniProt P54259) | inactive: 0 |
| ATXN2L (UniProt Q8WWM7) | inactive: 0 |
| BID (UniProt P55957) | inactive: 0 |
| CAMSAP1 (UniProt Q5T5Y3) | inactive: 0 |
| C12orf10 (UniProt Q9HB07) | inactive: 0 |
| BTF3L4 (UniProt Q96K17) | inactive: 0 |
| ASH2L (UniProt Q9UBL3) | inactive: 0 |
| ATRX (UniProt P46100) | inactive: 0 |
| CACTIN (UniProt Q8WUQ7) | active: 1 |
| CAMK4 (UniProt Q16566) | inactive: 0 |
| CARD8 (UniProt Q9Y2G2) | inactive: 0 |
| CAMKK2 (UniProt Q96RR4) | inactive: 0 |
| ARL6IP4 (UniProt Q66PJ3) | inactive: 0 |
| C5orf51 (UniProt A6NDU8) | active: 1 |
| BMS1 (UniProt Q14692) | inactive: 0 |
| C1orf131 (UniProt Q8NDD1) | inactive: 0 |
| CALU (UniProt O43852) | inactive: 0 |
| BRD3 (UniProt Q15059) | inactive: 0 |

| Target | dose-dependent thermal stabilisation call |
| --- | --- |
| C1QBP (UniProt Q07021) | inactive: 0 |
| ARHGEF6 (UniProt Q15052) | inactive: 0 |
| CACYBP (UniProt Q9HB71) | inactive: 0 |
| ARPC5 (UniProt O15511) | inactive: 0 |
| BACH1 (UniProt O14867) | inactive: 0 |
| BLOC1S2 (UniProt Q6QNY1) | inactive: 0 |
| CAPNS1 (UniProt P04632) | inactive: 0 |
| BOD1L1 (UniProt Q8NFC6) | inactive: 0 |
| ARL8A (UniProt Q96BM9) | active: 1 |
| ARHGAP35 (UniProt Q9NRY4) | inactive: 0 |
| C11orf68 (UniProt Q9H3H3) | inactive: 0 |
| C1orf122 (UniProt Q6ZSJ8) | inactive: 0 |
| BROX (UniProt Q5VW32) | active: 1 |
| ARPC4 (UniProt P59998) | active: 1 |
| ARHGAP45 (UniProt Q92619) | inactive: 0 |
| ARMC6 (UniProt Q6NXE6) | active: 1 |
| C8orf33 (UniProt Q9H7E9) | inactive: 0 |
| BIRC6 (UniProt Q9NR09) | inactive: 0 |

2 entries from above in another layout:
ARL8A (UniProt Q96BM9)
  dose-dependent thermal stabilisation call: active: 1
ARHGAP35 (UniProt Q9NRY4)
  dose-dependent thermal stabilisation call: inactive: 0
